Test [1] addresses Flag-tagged mutant NLRP3 lacking the amino-terminal pyrin domain. The experiment in a line: co-IP; HEK293 cells transiently cotransfected with HA-IKKβ and Flag-tagged proteins; lysate subjected to immunoprecipitation, immunoblot. In general terms: In western blotting, separated proteins are transferred to a membrane and probed.
Test [2] concerns the target Flag-tagged LRR domain of NLRP3, singly expressed. The test is described as above.

Results are given in words; binding and its absence hold for the method and conditions named. In cells and extracts the contact can be indirect. A result given as binding can be weak or reduced; the word gives no strength. Where a sequence is shown, tags or fusion partners need not be part of it.

B1: IKKβ used for microscale thermophoresis (enzyme, UniProt O14920 1-756, looked up)
chain: MSWSPSLTTQTCGAWEMKERLGTGGFGNVIRWHNQETGEQIAIKQCRQELSPRNRERWCLEIQIMRRLTHPNVVAARDVPEGMQNLAPNDLPLLAMEYCQGGDLRKYLNQFENCCGLREGAILTLLSDIASALRYLHENRIIHRDLKPENIVLQQGEQRLIHKIIDLGYAKELDQGSLCTSFVGTLQYLAPELLEQQKYTVTVDYWSFGTLAFECITGFRPFLPNWQPVQWHSKVRQKSEVDIVVSEDLNGTVKFSSSLPYPNNLNSVLAERLEKWLQLMLMWHPRQRGTDPTYGPNGCFKALDDILNLKLVHILNMVTGTIHTYPVTEDESLQSLKARIQQDTGIPEEDQELLQEAGLALIPDKPATQCISDGKLNEGHTLDMDLVFLFDNSKITYETQISPRPQPESVSCILQEPKRNLAFFQLRKVWGQVWHSIQTLKEDCNRLQQGQRAAMMNLLRNNSCLSKMKNSMASMSQQLKAKLDFFKTSIQIDLEKYSEQTEFGITSDKLLLAWREMEQAVELCGRENEVKLLVERMMALQTDIVDLQRSPMGRKQGGTLDDLEEQARELYRRLREKPRDQRTEGDSQEMVRLLLQAIQSFEKKVRVIYTQLSKTVVCKQKALELLPKVEEVVSLMNEDEKTVVRLQEKRQKELWNLLKIACSKVRGPVSGSPDSMNASRLSQPGQLMSQPSTASNSLPEPAKKSEELVAEAHNLCTLLENAIQDTVREQDQSFTALDWSWLQTEEEEHSCLEQAS
notes: IKKβ titrated in MST
Regarding B1, the binding entry in test [1] and in test [2] was “binds” throughout.

Source of the values: publication PMC9579124, “IKKβ binds NLRP3 providing a shortcut to inflammasome activation for rapid immune responses” (Signal Transduction and Targeted Therapy, 2022).
